Data as given in the supplement of paper PMC12282887.
These are raw signals, not scaled to a control.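 For antimicrobials the highest concentration approximated the MIC. Most other compounds topped out at 500 µM, and known inducer-like compounds reached up to 1 mM. Inocula for deletion strains were tenfold smaller, and any well growing below 10% of the overall median was considered non-growing.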

Tested on: Escherichia coli BW25113
Assay: growth (OD600 area under curve, 8 h) (OD600 x h); higher = more growth
Protocol: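 E. coli BW25113 reporter strains (wild type, ΔmarA, ΔsoxS, Δrob, each carrying one of 8 lux reporter plasmids) were grown in 40 µl LB in 384-well plates at 37°C, 800 rpm, with each compound at 4 two-fold concentrations, in biological duplicates. Growth is the baseline-corrected OD600 area under the curve over 8 h (0-8 h WT, 1-9 h deletion strains).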

COc1c(N2C[C@@H]3CCCN[C@@H]3C2)c(F)cc2c(=O)c(C(=O)O)cn(C3CC3)c12 [Moxifloxacin]
growth
Conditions	reporter plasmid: EVC	reporter plasmid: acrABp	reporter plasmid: marRABp	reporter plasmid: micFp	reporter plasmid: ompFp	reporter plasmid: robp	reporter plasmid: soxSp	reporter plasmid: tolCp
0.011 µg/ml, genetic background: wild type	2.79	3.07	3.05	2.94	2.8	3.12	2.97	2.945
0.011 µg/ml, genetic background: ΔmarA	3.11	3.52	3.35	3.18	3.06	3.22	3	2.7
0.011 µg/ml, genetic background: Δrob	2.79	2.81	3.32	3.19	2.43	2.53	2.85	3.02
0.011 µg/ml, genetic background: ΔsoxS	2.94	2.92	3.03	2.67	2.7	2.92	2.97	2.85
0.022 µg/ml, genetic background: wild type	2.426	2.27	2.82	2.37	2.26	2.63	2.698	2.48
0.022 µg/ml, genetic background: ΔmarA	2.1	2.29	2	2.6	2.46	2.06	2.7	1.6
0.022 µg/ml, genetic background: Δrob	2.32	2.2	2.32	2.61	1.76	1.68	2.78	2.08
0.022 µg/ml, genetic background: ΔsoxS	2.55	2.47	2.75	2.05	2.05	2.42	2.5	2.48
0.044 µg/ml, genetic background: wild type	0.933	0.392	1.03	0.861	0.439	0.869	2.38	1.14
0.044 µg/ml, genetic background: ΔmarA	0.243	-0.108	0.0613	0.789	0.222	-0.056	2.16	0.0944
0.044 µg/ml, genetic background: Δrob	0.631	0.123	0.165	0.635	-0.0248	-0.00854	2.34	0.276
0.044 µg/ml, genetic background: ΔsoxS	0.885	0.779	0.833	0.548	0.143	0.3663	1.17	0.991
0.088 µg/ml, genetic background: wild type	0.192	-0.265	0.145	0.169	0.0195	0.1	0.209	0.185
0.088 µg/ml, genetic background: ΔmarA	-0.0354	-0.219	0.00943	-0.0451	-0.0948	-0.0503	-0.0627	-0.0218
0.088 µg/ml, genetic background: Δrob	-0.103	-0.337	-0.01	-0.0302	-0.1	-0.0635	-0.0156	-0.0412
0.088 µg/ml, genetic background: ΔsoxS	0.0175	-0.0409	0.0222	-0.0458	0.00152	-0.0068	-0.0427	-0.00721

CO[C@@H]1[C@@H](OC(N)=O)[C@@H](O)[C@H](Oc2ccc3c(O)c(NC(=O)c4ccc(O)c(CC=C(C)C)c4)c(=O)oc3c2C)OC1(C)C [Novobiocin]
growth
Conditions	reporter plasmid: EVC	reporter plasmid: acrABp	reporter plasmid: marRABp	reporter plasmid: micFp	reporter plasmid: ompFp	reporter plasmid: robp	reporter plasmid: soxSp	reporter plasmid: tolCp
2.4 µg/ml, genetic background: wild type	3.2	3.11	3.14	3.42	3.17	3.2	3.37	3.32
2.4 µg/ml, genetic background: ΔmarA	3.31	3.96	3.48	3.38	3.43	3.63	3.05	3.02
2.4 µg/ml, genetic background: Δrob	3.31	2.8	3.43	3.26	2.61	2.77	3.205	3.284
2.4 µg/ml, genetic background: ΔsoxS	3.45	3.39	3.14	3.14	3.16	3.25	3.266	3.37
4.8 µg/ml, genetic background: wild type	3.35	3.42	3.2	3.32	3.12	3.13	3.26	3.43
4.8 µg/ml, genetic background: ΔmarA	3.1	3.7	3.28	3.54	3.25	3.27	3.23	2.9
4.8 µg/ml, genetic background: Δrob	3.34	2.52	3.28	3.33	2.46	2.58	3.35	3.341
4.8 µg/ml, genetic background: ΔsoxS	3.58	3.39	3.01	3.21	3.11	2.98	3.19	3.58
9.5 µg/ml, genetic background: wild type	3.47	2.94	3.42	3.29	3.16	3.35	3.35	3.43
9.5 µg/ml, genetic background: ΔmarA	3.35	3.95	3.46	3.49	3.54	3.81	3.11	3.03
9.5 µg/ml, genetic background: Δrob	3.26	2.96	3.42	3.47	2.78	2.86	3.26	3.47
9.5 µg/ml, genetic background: ΔsoxS	3.54	3.57	3.32	3.22	2.94	3.45	3.27	3.47
19 µg/ml, genetic background: wild type	3.14	2.19	2.63	2.72	2.62	2.46	3.08	2.98
19 µg/ml, genetic background: ΔmarA	2.13	0.45	0.991	2.49	1.32	2.08	3.26	1.87
19 µg/ml, genetic background: Δrob	2.65	0.627	2.23	2.31	1.08	0.816	3.05	2.92
19 µg/ml, genetic background: ΔsoxS	3.18	1.72	2.11	2.56	1.39	1.36	2.84	3.21
